Data as given in PMC4691244.
Read-outs that look alike come from different tables or passages of the source. These are yes or no findings as the source states them, for the method shown. In cells and extracts the contact can be indirect. These calls come from enrichment with a bait or labelling near it, and not all partners need be listed. No binding means not detected with the bait. For some assays here: Sequences can lack the tags named with a protein.

Protein sequences, listed by entry. Tags and fused reporters are not part of them.
UniProt Q9Y580: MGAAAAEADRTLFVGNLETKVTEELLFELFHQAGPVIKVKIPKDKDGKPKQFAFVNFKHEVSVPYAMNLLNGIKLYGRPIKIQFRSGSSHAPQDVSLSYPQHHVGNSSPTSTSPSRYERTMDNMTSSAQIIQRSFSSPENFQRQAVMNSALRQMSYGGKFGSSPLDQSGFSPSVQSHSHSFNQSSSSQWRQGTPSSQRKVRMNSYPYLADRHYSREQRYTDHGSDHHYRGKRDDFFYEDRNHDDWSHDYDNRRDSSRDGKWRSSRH

T1: FLAG-DGCR8 (human) (UniProt Q8WYQ5)
T1 sequence: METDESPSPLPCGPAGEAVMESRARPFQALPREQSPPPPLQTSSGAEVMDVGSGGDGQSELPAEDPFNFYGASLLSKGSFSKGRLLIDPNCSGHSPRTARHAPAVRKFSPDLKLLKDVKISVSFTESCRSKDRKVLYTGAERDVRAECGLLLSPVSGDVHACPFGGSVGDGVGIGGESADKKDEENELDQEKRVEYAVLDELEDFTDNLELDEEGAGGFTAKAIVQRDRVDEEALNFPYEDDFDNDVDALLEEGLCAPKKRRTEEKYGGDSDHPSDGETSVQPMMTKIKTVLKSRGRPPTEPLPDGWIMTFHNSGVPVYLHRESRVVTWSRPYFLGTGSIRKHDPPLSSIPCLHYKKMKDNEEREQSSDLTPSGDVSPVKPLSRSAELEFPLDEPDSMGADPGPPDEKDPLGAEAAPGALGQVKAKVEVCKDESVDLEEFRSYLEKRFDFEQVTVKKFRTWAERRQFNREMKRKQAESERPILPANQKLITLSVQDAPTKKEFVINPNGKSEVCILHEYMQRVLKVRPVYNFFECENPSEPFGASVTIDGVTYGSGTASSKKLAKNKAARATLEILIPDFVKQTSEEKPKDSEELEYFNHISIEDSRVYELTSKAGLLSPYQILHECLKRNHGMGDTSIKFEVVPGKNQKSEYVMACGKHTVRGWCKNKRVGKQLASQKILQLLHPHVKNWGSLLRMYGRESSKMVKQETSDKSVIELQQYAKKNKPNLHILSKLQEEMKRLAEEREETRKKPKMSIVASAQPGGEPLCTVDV

T2: T7-DGCR8 (human) (UniProt Q8WYQ5)
T2 sequence: T1 sequence

T3: T7-DGCR8 (human), Q8WYQ5
T3 chain: T1 sequence

T4: FLAG-DGCR8 (human), Q8WYQ5
T4 chain: T1 sequence

B1: hRRP6 (enzyme, UniProt Q01780 1-885)
chain: MAPPSTREPRVLSATSATKSDGEMVLPGFPDADSFVKFALGSVVAVTKASGGLPQFGDEYDFYRSFPGFQAFCETQGDRLLQCMSRVMQYHGCRSNIKDRSKVTELEDKFDLLVDANDVILERVGILLDEASGVNKNQQPVLPAGLQVPKTVVSSWNRKAAEYGKKAKSETFRLLHAKNIIRPQLKFREKIDNSNTPFLPKIFIKPNAQKPLPQALSKERRERPQDRPEDLDVPPALADFIHQQRTQQVEQDMFAHPYQYELNHFTPADAVLQKPQPQLYRPIEETPCHFISSLDELVELNEKLLNCQEFAVDLEHHSYRSFLGLTCLMQISTRTEDFIIDTLELRSDMYILNESLTDPAIVKVFHGADSDIEWLQKDFGLYVVNMFDTHQAARLLNLGRHSLDHLLKLYCNVDSNKQYQLADWRIRPLPEEMLSYARDDTHYLLYIYDKMRLEMWERGNGQPVQLQVVWQRSRDICLKKFIKPIFTDESYLELYRKQKKHLNTQQLTAFQLLFAWRDKTARREDESYGYVLPNHMMLKIAEELPKEPQGIIACCNPVPPLVRQQINEMHLLIQQAREMPLLKSEVAAGVKKSGPLPSAERLENVLFGPHDCSHAPPDGYPIIPTSGSVPVQKQASLFPDEKEDNLLGTTCLIATAVITLFNEPSAEDSKKGPLTVAQKKAQNIMESFENPFRMFLPSLGHRAPVSQAAKFDPSTKIYEISNRWKLAQVQVQKDSKEAVKKKAAEQTAAREQAKEACKAAAEQAISVRQQVVLENAAKKRERATSDPRTTEQKQEKKRLKISKKPKDPEPPEKEFTPYDYSQSDFKAFAGNSKSKVSSQFDPNKQTPSGKKCIAAKKIKQSVGNKSMSFPTGKSDRGFRYNWPQR
B2: hDIS3, Q9Y2L1 1-958 (enzyme)
chain: MLKSKTFLKKTRAGGVMKIVREHYLRDDIGCGAPGCAACGGAHEGPALEPQPQDPASSVCPQPHYLLPDTNVLLHQIDVLEDPAIRNVIVLQTVLQEVRNRSAPVYKRIRDVTNNQEKHFYTFTNEHHRETYVEQEQGENANDRNDRAIRVAAKWYNEHLKKMSADNQLQVIFITNDRRNKEKAIEEGIPAFTCEEYVKSLTANPELIDRLACLSEEGNEIESGKIIFSEHLPLSKLQQGIKSGTYLQGTFRASRENYLEATVWIHGDNEENKEIILQGLKHLNRAVHEDIVAVELLPKSQWVAPSSVVLHDEGQNEEDVEKEEETERMLKTAVSEKMLKPTGRVVGIIKRNWRPYCGMLSKSDIKESRRHLFTPADKRIPRIRIETRQASTLEGRRIIVAIDGWPRNSRYPNGHFVRNLGDVGEKETETEVLLLEHDVPHQPFSQAVLSFLPKMPWSITEKDMKNREDLRHLCICSVDPPGCTDIDDALHCRELENGNLEVGVHIADVSHFIRPGNALDQESARRGTTVYLCEKRIDMVPELLSSNLCSLKCDVDRLAFSCIWEMNHNAEILKTKFTKSVINSKASLTYAEAQLRIDSANMNDDITTSLRGLNKLAKILKKRRIEKGALTLSSPEVRFHMDSETHDPIDLQTKELRETNSMVEEFMLLANISVAKKIHEEFSEHALLRKHPAPPPSNYEILVKAARSRNLEIKTDTAKSLAESLDQAESPTFPYLNTLLRILATRCMMQAVYFCSGMDNDFHHYGLASPIYTHFTSPIRRYADVIVHRLLAVAIGADCTYPELTDKHKLADICKNLNFRHKMAQYAQRASVAFHTQLFFKSKGIVSEEAYILFVRKNAIVVLIPKYGLEGTVFFEEKDKPNPQLIYDDEIPSLKIEDTVFHVFDKVKVKIMLDSSNLQHQKIRMSLVEPQIPGISIPTDTSNMDLNGPKKKKMKLGK
B3: ZCCHC7 (protein, UniProt Q8N3Z6 1-543)
chain: MMFGGYETIEAYEDDLYRDESSSELSVDSEVEFQLYSQIHYAQDLDDVIREEEHEEKNSGNSESSSSKPNQKKLIVLSDSEVIQLSDGSEVITLSDEDSIYRCKGKNVRVQAQENAHGLSSSLQSNELVDKKCKSDIEKPKSEERSGVIREVMIIEVSSSEEEESTISEGDNVESWMLLGCEVDDKDDDILLNLVGCENSVTEGEDGINWSISDKDIEAQIANNRTPGRWTQRYYSANKNIICRNCDKRGHLSKNCPLPRKVRRCFLCSRRGHLLYSCPAPLCEYCPVPKMLDHSCLFRHSWDKQCDRCHMLGHYTDACTEIWRQYHLTTKPGPPKKPKTPSRPSALAYCYHCAQKGHYGHECPEREVYDPSPVSPFICYYDDKYEIQEREKRLKQKIKVLKKNGVIPEPSKLPYIKAANENPHHDIRKGRASWKSNRWPQENKETQKEMKNKNRNWEKHRKADRHREVDEDFPRGPKTYSSPGSFKTQKPSKPFHRSSHYHTSREDKSPKEGKRGKQKKKERCWEDDDNDNLFLIKQRKKKS

Legend:
Test in all cases: affinity purification with mass spectrometry; immunoprecipitation of T7-DGCR8, FLAG-DGCR8 and FLAG-Drosha with their controls; whole gel lanes analysed by mass spectrometry
FLAG-DGCR8 (human) [1] = target: T1, FLAG-DGCR8 (human)
T7-DGCR8 (human) [2] = target: T2, T7-DGCR8 (human)
FLAG-DGCR8 (human) [3] = target: T1, FLAG-DGCR8 (human); remark: listed apart in the source
T7-DGCR8 (human) [4] = target: T2, T7-DGCR8 (human); remark: listed apart in the source
T7-DGCR8 (human), Q8WYQ5 = target: T3, T7-DGCR8 (human), Q8WYQ5; conditions: remark: other sources report otherwise
[5] = target: T4, FLAG-DGCR8 (human), Q8WYQ5; conditions: remark: other sources report otherwise

Row | Molecule | binding (FLAG-DGCR8 (human) [3]) | binding (T7-DGCR8 (human) [4]) | other results
1 | RBM7 (from UniProt Q9Y580 1-266) |  |  | binding (FLAG-DGCR8 (human) [1]): no binding; binding (T7-DGCR8 (human) [2]): no binding
2 | B1 | binds | binds | 
3 | B2 |  |  | binding (T7-DGCR8 (human), Q8WYQ5): no binding; binding [5]: no binding
4 | B3 | no binding | no binding | 
